From the supplement of paper PMC10032668
The other results are listed elsewhere or left out. Only hits are listed; about a third recur on repeated control peptides.

Protein sequences, listed by entry. Tags and fused reporters are not part of them.
GRWD1, Q9BQ67, UniProt Q9BQ67, whole entry: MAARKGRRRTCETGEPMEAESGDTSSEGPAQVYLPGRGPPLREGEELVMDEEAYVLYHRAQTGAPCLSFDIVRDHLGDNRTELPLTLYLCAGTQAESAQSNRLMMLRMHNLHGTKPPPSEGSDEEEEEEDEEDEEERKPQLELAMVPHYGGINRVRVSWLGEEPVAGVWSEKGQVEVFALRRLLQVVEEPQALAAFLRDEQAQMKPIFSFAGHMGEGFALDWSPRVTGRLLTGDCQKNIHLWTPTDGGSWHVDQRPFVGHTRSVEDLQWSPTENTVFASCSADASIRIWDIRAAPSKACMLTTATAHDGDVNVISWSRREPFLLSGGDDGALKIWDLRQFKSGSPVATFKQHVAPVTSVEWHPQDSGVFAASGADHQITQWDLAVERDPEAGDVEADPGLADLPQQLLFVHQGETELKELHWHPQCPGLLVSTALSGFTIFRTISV
PLK1, P53350, UniProt P53350, whole entry: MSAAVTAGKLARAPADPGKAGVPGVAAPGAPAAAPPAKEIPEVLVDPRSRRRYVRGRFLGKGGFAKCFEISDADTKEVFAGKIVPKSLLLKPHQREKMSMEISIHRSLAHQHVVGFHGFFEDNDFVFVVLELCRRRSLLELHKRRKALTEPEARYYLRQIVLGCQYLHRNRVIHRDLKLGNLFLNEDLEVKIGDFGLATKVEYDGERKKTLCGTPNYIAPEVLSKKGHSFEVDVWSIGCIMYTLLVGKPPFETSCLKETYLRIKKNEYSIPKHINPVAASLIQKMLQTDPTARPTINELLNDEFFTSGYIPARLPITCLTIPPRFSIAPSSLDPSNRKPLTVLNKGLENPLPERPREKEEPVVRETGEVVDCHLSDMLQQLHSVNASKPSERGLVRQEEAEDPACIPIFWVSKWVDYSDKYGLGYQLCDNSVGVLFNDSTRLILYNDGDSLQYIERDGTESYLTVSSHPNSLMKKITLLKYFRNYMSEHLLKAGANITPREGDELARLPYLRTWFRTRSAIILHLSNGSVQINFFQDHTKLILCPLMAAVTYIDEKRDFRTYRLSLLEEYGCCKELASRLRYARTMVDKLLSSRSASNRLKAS

B1: NUS1 (peptide)
chain: MAAGAR
B2: CYLD (peptide)
chain: MVLHSHPEFLS

Key:
Assay in all cases: PRISMA enrichment of interactor (LFQ) in peptide spot vs all other peptide spots (log2 fold change); higher = stronger / more specific binding of the interactor to the peptide
[1] = molecular target: AASDHPPT, Q9NRN7
Procedure: (§1)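 PRISMA: 221 full-length sORF-encoded peptides (3-15 aa), plus SOS1/GLUT1 control peptides, were spot-synthesized on cellulose membranes in triplicate. Membranes were incubated with HEK293T lysate, and bound proteins were identified by LC-MS/MS with LFQ. Enrichment is the log2 fold change versus all other peptide spots; only significant interactors are listed (cutoff c=6, x0=2.8).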

[2] = molecular target: FDX1, P10109
Procedure: as §1

[3] = molecular target: LTF, P02788
Procedure: as §1

[4] = molecular target: SAPCD2, Q86UD0
Procedure: as §1

[5] = molecular target: SPTSSA, Q969W0
Procedure: as §1

[6] = molecular target: ABT1, Q9ULW3
Procedure: as §1

[7] = molecular target: CDCA7L, Q96GN5
Procedure: as §1

[8] = molecular target: CPSF3, Q9UKF6
Procedure: as §1

[9] = molecular target: CSNK1E, P49674
Procedure: as §1

[10] = molecular target: DNAJA3, Q96EY1
Procedure: as §1

[11] = molecular target: EMILIN1, Q9Y6C2
Procedure: as §1

[12] = molecular target: FAM168A, Q92567
Procedure: as §1

[13] = molecular target: FAM98A, Q8NCA5
Procedure: as §1

[14] = molecular target: GRWD1, Q9BQ67
Procedure: as §1

[15] = molecular target: PLK1, P53350
Procedure: as §1

[16] = molecular target: POLDIP2, Q9Y2S7
Procedure: as §1

[17] = molecular target: RAB2A, P61019
Procedure: as §1

[18] = molecular target: SCPEP1, Q9HB40
Procedure: as §1

[19] = molecular target: SSBP1, Q04837
Procedure: as §1

[20] = molecular target: TOMM40, O96008
Procedure: as §1

[21] = molecular target: ZBTB10, Q96DT7
Procedure: as §1

[22] = molecular target: ZNF768, Q9H5H4
Procedure: as §1

Binder	PRISMA enrichment of interactor (log2) [1]	PRISMA enrichment of interactor (log2) [2]	PRISMA enrichment of interactor (log2) [3]	PRISMA enrichment of interactor (log2) [4]	PRISMA enrichment of interactor (log2) [5]	PRISMA enrichment of interactor (log2) [6]	PRISMA enrichment of interactor (log2) [7]	PRISMA enrichment of interactor (log2) [8]	PRISMA enrichment of interactor (log2) [9]	PRISMA enrichment of interactor (log2) [10]	PRISMA enrichment of interactor (log2) [11]	PRISMA enrichment of interactor (log2) [12]	PRISMA enrichment of interactor (log2) [13]	PRISMA enrichment of interactor (log2) [14]	PRISMA enrichment of interactor (log2) [15]	PRISMA enrichment of interactor (log2) [16]	PRISMA enrichment of interactor (log2) [17]	PRISMA enrichment of interactor (log2) [18]	PRISMA enrichment of interactor (log2) [19]	PRISMA enrichment of interactor (log2) [20]	PRISMA enrichment of interactor (log2) [21]	PRISMA enrichment of interactor (log2) [22]
B1	3.98	4.4	7.32	7.76	9.15																	
B2						3.92	4.03	4.59	6.36	6.32	5.05	5.15	7.76	6.94	7.8	6.11	6.22	6.15	5.09	5.32	4.92	6.13
